Record: PubChem BioAssay AID1259424 (University of Nebraska Medical Center, 2018)

Test: 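Find knockdowns that reproduce the expression shifts seen after KSR1 loss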 (primary screen)
System: human HCT116 colon cancer cells
Reagents: siRNA pool against human genes, 50 nM
Measured: 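Six signature mRNAs by branched-DNA multiplex assay, scaled to two housekeeping genes and non-targeting median, log2; matched to mean KSR1 knockdown profile by Pearson correlation and euclidean distance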
Scale: mean correlation with KSR1 profile and KSR1 correlation: higher = expression change more like KSR1 knockdown; mean distance from KSR1 profile: higher = expression change less like KSR1 knockdown
The deposit covers about 14,000 reagents; shown is a random part of them. 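Higher correlation or smaller distance means closer resemblance to KSR1 loss; control wells, including KSR1 knockdowns, recur on many plates.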 A reagent listed more than once was tested more than once; the source does not tell the runs apart. Further read-outs or replicates are left out here. The record does not give: the time to read-out.

no.	gene	mean correlation with KSR1 profile	mean distance from KSR1 profile	KSR1 correlation, replicate 1
1	NR2E3	-0.0242	2.61	0.112
2	NFATC1	-0.972	2.02	-0.522
3	ARL3	0.769	1.1	0.768
4	TSPYL5	0.72	0.984	0.757
5	CASP14	-0.45	3.26	-0.584
6	EAPP	0.145	2.57	-0.0391
7	PCDHB8	-0.345	2.92	-0.15
8	ZNF271P	-0.284	1.84	0.0632
9	HOXA13	0.727	1.65	0.547
10	POGZ	-0.185	1.9	-0.229
11	ZNF695	-0.575	2.85	-0.642
12	KRT32	-0.461	1.49	-0.704
13	PPEF2	-0.335	3.12	-0.353
14	RXRA	0.564	1.34	0.379
15	CLTC	-0.307	3.69	-0.138
16	PDS5B	0.0504	2.43	0.4
17	FKBP9	-0.664	1.96	-0.658
18	MYO5A	0.303	1.16	0.259
19	TLR9	-0.312	1.97	-0.491
20	AASDHPPT	-0.137	2.18	0.228
21	BSG	-0.335	2.33	-0.444
22	LENG8	-0.407	2.55	-0.312
23	ADCY8	-0.312	1.7	-0.164
24	PRLR	-0.702	1.5	-0.651
25	SPTBN1	-0.72	3.18	-0.749
26	DNAJC8	-0.335	2.95	-0.155
27	GAA	-0.705	2.52	-0.721

Looked up above:
PCDHB8, KSR1 correlation, replicate 1 → -0.15
Result for BSG under “mean correlation with KSR1 profile”: -0.335
Under “KSR1 correlation, replicate 1”, TLR9 reads -0.491
Value of AASDHPPT in “mean correlation with KSR1 profile”: -0.137

Additional reagents:
no.	gene	mean correlation with KSR1 profile	mean distance from KSR1 profile	KSR1 correlation, replicate 1
28	STOM	-0.202	2.07	-0.436
29	UTS2	-0.375	2.42	-0.0716
30	G3BP1	0.315	1.19	0.0742
31	HS1BP3	-0.309	1.52	-0.34
32	TMEM234	0.178	1.43	-0.137
33	AP5S1	0.689	1.44	0.689
34	PPARG	-0.229	2.59	-0.00668
35	OTUD4	-0.519	1.6	-0.744
36	SPG11	-0.0539	2.13	-0.431
37	ARPC5	-0.256	2.66	-0.3
38	FLRT3	-0.191	1.24	0.229
39	ZNF516	-0.413	1.46	-0.335
40	ZNF516	0.12	1.59	0.145
41	ZNF516	-0.192	1.35	-0.00535
42	LILRA1	-0.529	3.74	-0.465
43	VPREB1	-0.235	2.57	-0.044
44	PIGO	-0.125	3.05	-0.265
45	YPEL3	0.518	2.42	0.388
46	TPTE	-0.509	1.79	-0.575
47	TTC23	-0.0973	3.11	-0.457
48	MAD1L1	0.322	2.18	0.426
49	UNG	0.497	2.86	0.465
50	CSAG2	0.0368	1.7	0.0549
